For at least one entry, the source does not settle the construct or the ends of the probe.

The source of these data is paper PMC5550436.

The data set deals with Flag-STAT5. Nature of the data set: EMSA. The following applies: unlabeled-probe competition and anti-STAT5 supershift described in Methods; LightShift Chemiluminescent RNA EMSA kit reaction buffer (composition and pH not stated), room temperature, 20 min; 4% polyacrylamide gel, 0.5x TBE; recombinant protein; protein details: Flag.

Turning to “CGGAGCCTAAAGCTGTTGCTTCGTGGAACTTAGACTAGCGGGAGAATTCAGTGTG (double strand) [Sall3 promoter probe]”, the binding result is given as “binds”.
